{"source": "patent US20080003684A1", "about": "“DIAGNOSTIC METHOD FOR MYOPATHY” (priority 2006, published 2008)", "key": {"plasma lipid profiles": {"tested_on": "plasma lipid profiles", "assay": "Lipidomics analysis of plasma (LC/MS, PLS/DA)", "assay_type": "in vivo, human", "conditions": "after 8 week high dose treatment; simvastatin versus atorvastatin"}, "[1]": {"tested_on": "muscle gene expression and plasma lipid profile", "assay": "PLS/DA analysis on combined muscle gene expression and plasma lipid profile data", "assay_type": "in vivo, human", "conditions": "after treatment; 38 genes and 132 lipids"}, "plasma ubiquinone": {"tested_on": "plasma ubiquinone", "conditions": "clinically acceptable doses; cited from earlier work"}, "human skeletal muscle [2]": {"tested_on": "human skeletal muscle", "assay": "Gene set enrichment analysis (GSEA) of muscle microarray data", "conditions": "high dose intervention group"}, "human skeletal muscle [3]": {"tested_on": "human skeletal muscle", "assay": "Whole genome microarray analysis in muscle biopsies, single-gene analysis", "conditions": "high dose statin treatment, criteria 1.5-fold change and p-value <0.05"}}, "note": "“Also recorded” adds a separate entry of the source. At least one compound was matched to its structure with a doubt left."}
{"smiles": "CCC(C)(C)C(=O)O[C@H]1C[C@@H](C)C=C2C=C[C@H](C)[C@H](CC[C@@H]3C[C@@H](O)CC(=O)O3)[C@H]21", "note": "[simvastatin]", "values": [{"measurement": "main plasma lipid profile differences between the two statins (LV3)", "setting": "plasma lipid profiles", "value": "upregulation of several phosphatidylethanolamines and long chain triacylglycerols, and downregulation of ether phosphatidylcholine and cholesterol esters; also recorded: upregulation of several phosphatidylethanolamines and long chain triacylglycerols, and downregulation of choline plasmalogens and cholesterol esters"}, {"measurement": "loadings of combined gene expression and lipid PLS/DA: changes associated with the treatment group", "setting": "[1]", "value": "changes in multiple genes from eicosanoid synthesis pathways as well as changes in multiple phosphatidylethanolamine and sphingomyelin molecular species"}, {"measurement": "levels of plasma ubiquinone", "setting": "plasma ubiquinone", "value": "lowered levels of plasma ubiquinone"}, {"measurement": "nature of upregulated pathways in skeletal muscle", "setting": "human skeletal muscle [2]", "value": "upregulated pathways in skeletal muscle associated with inflammation and mitochondrial damage"}, {"measurement": "number of genes down-regulated", "setting": "human skeletal muscle [3]", "value": "Twenty-six"}]}
